# Legend:
# odor evaluation panel = assay: Odor evaluation panel rating of odorants by Rate-All-That-Apply (RATA) method with 55-word odor lexicon, plus intensity and pleasantness; parameters: species or system human; details: for Floral: mean panelist score for odor label floral (RATA); for Fruity: mean panelist score for odor label fruity (RATA); for Spicy: mean panelist score for odor label spicy (RATA); for Sweet: mean panelist score for odor label sweet (RATA); for Pleasantness: mean panelist score for odor pleasantness
# [1] = Evaluation by trained and/or certified flavor or fragrance chemists or master perfumers; categorization by commercial prospect; details: evaluation by trained flavor or fragrance chemists or master perfumers
SMILES,Floral (odor evaluation panel),Fruity (odor evaluation panel),Spicy (odor evaluation panel),Sweet (odor evaluation panel),Pleasantness (odor evaluation panel),Rating (category of commercial prospect) [1]
"CC(=O)c1ccc(O)c(C)c1 [Compound 722, 1-(4-hydroxy-3-methylphenyl)ethanone]",0.5,0.469,0.062,0.844,5.3,(A)
"Cc1ccccc1CO [Compound 724, (2-methylphenyl)methanol]",0.714,0.629,0,1.429,4.546,(C)
"CCC1CCCCC1O (stereo not drawn) [Compound 728, 2-ethylcyclohexan-1-ol]",0.257,0,0.057,0.314,4.517,(A)
"C1CCC(N2CCNCC2)CC1 [Compound 731, 1-cyclohexylpiperazine]",0.094,0,0.094,0.156,2.616,(D)
"C=C(C)C(=O)OC1CC(C)(C)NC(C)(C)C1 [Compound 733, (2,2,6,6-tetramethylpiperidin-4-yl) 2-methylprop-2-enoate]",0.143,0.314,0,0.229,3.766,(D)
"C=CC1CC2C=CC1C2 (stereo not drawn) [Compound 735, 5-ethenylbicyclo[2.2.1]hept-2-ene]",0,0.156,0.531,0.469,3.809,(B)
"OCC1CC2C=CC1C2 (stereo not drawn) [Compound 736, 2-bicyclo[2.2.1]hept-5-enylmethanol]",0.188,0.25,0.031,0.812,4.669,(A)
"C/C(N)=C/C(=O)OC(C)C [Compound 738, propan-2-yl (Z)-3-aminobut-2-enoate]",0.344,0,0.406,0.094,2.262,(D)
"C=C1N(C)c2ccccc2C1(C)C [Compound 741, 1,3,3-trimethyl-2-methylideneindole]",0,0,0.111,0.111,–,(B)
"Oc1cc2ccccc2[nH]1 [Compound 743, 1H-indol-2-ol]",0.438,0.344,0.094,–,4.609,(D)
"CC(C)C(C)(C#N)C(C)C [Compound 745, 2,3-dimethyl-2-propan-2-ylbutanenitrile]",0,0,0.114,0.371,6.283,(C)
"c1ccc2nsnc2c1 [Compound 753, 2,1,3-benzothiadiazole]",0.25,0.281,0.094,1.125,4.922,(C)
"Cc1cccc(C)c1[N+](=O)[O-] [Compound 756, 1,3-dimethyl-2-nitrobenzene]",0.233,0.2,0.7,0.833,4.933,(D)
"CCCC1CCC(O)CC1 (stereo not drawn) [Compound 757, 4-propylcyclohexan-1-ol]",1.457,0.143,0.371,0.771,5.289,(A)
"CCCCc1cc2ccccc2o1 [Compound 758, 2-butyl-1-benzofuran]",0.844,0.781,0.094,1.156,5.875,(A)
"CC(C)(C)OC(=O)NC1CCCNC1 (stereo not drawn) [Compound 760, tert-butyl N-piperidin-3-ylcarbamate]",0,0,0,0,–,(B)
"CCCC(C)(CO)CO [Compound 761, 2-methyl-2-propylpropane-1,3-diol]",0.25,0.469,0.031,1,5.156,(D)
"CCOC(=O)c1cc(C)nn1C [Compound 762, ethyl 2,5-dimethylpyrazole-3-carboxylate]",0.286,0.029,1.029,0.914,4.606,(A)

SMILES,Floral (odor evaluation panel),Fruity (odor evaluation panel),Spicy (odor evaluation panel),Sweet (odor evaluation panel),Pleasantness (odor evaluation panel),Rating (category of commercial prospect) [1]
"Cc1n[nH]c(C)n1 [Compound 763, 3,5-dimethyl-1H-1,2,4-triazole]",0.533,0.5,0.367,1.367,5.807,(D)
"CC1=Cc2ccccc2C1 [Compound 764, 2-methyl-1H-indene]",0.361,0,0.083,0.417,–,(D)
"CCN1CCC(O)C1 (stereo not drawn) [Compound 765, 1-ethylpyrrolidin-3-ol]",0.25,0.219,0.125,0.531,4.25,(D)
"O=Cc1ccc([N+](=O)[O-])cc1 [Compound 773, 4-nitrobenzaldehyde]",0.688,0.75,0.281,1.406,6.038,(D)
"COC(=O)c1cccnc1OC [Compound 776, methyl 2-methoxypyridine-3-carboxylate]",0.25,0.094,0.094,0.938,5.966,(B)
"C#CCCCO [Compound 777, pent-4-yn-1-ol]",0,0,0.219,0.156,3.984,(B)
"C#Cc1ccc(CCCCC)cc1 [Compound 780, 1-ethynyl-4-pentylbenzene]",0.281,0.469,0.688,1.094,5.678,(A)
"COC(=O)/C=C/c1ccc(C)cc1 [Compound 781, methyl (E)-3-(4-methylphenyl)prop-2-enoate]",0.364,1.273,0,1.03,5.488,(D)
"COCc1ccc(COC)cc1 [Compound 783, 1,4-bis(methoxymethyl)benzene]",1.031,0.844,0.844,1.25,6.062,(D)
"CNC1CCN(Cc2ccccc2)C1 (stereo not drawn) [Compound 784, 1-benzyl-N-methylpyrrolidin-3-amine]",0.062,0.031,0.094,0.219,4.266,(C)
"CC(C)(C)CC(=O)O [Compound 786, 3,3-dimethylbutanoic acid]",0.059,1.353,0,0.912,4.409,(D)
"CCCCc1ccsc1 [Compound 790, 3-butylthiophene]",0.806,0.639,0.25,0.944,–,(D)
"CC(C)(C)C(=O)CC#N [Compound 791, 4,4-dimethyl-3-oxopentanenitrile]",0.194,0.917,0,0.861,–,(D)
"C1CSCCN1 [Compound 800, thiomorpholine]",0.031,0,0.125,0,4.222,(D)
"O=C(O)C1=COCCC1 [Compound 801, 3,4-dihydro-2H-pyran-5-carboxylic acid]",0,0.125,0.094,0.156,3.706,(D)
"COc1cccc(CO)c1 [Compound 803, (3-methoxyphenyl)methanol]",0.387,0.032,0.129,0.387,5.097,(D)
"CCCCC(CC)(CO)CO [Compound 812, 2-butyl-2-ethylpropane-1,3-diol]",0.2,0.229,0.114,0.4,4.766,(D)
"C=C(c1ccccc1)c1ccccc1 [Compound 820, 1-phenylethenylbenzene]",0.125,0.188,0.469,0.219,5.028,(D)
